Results published in publication PMC2702170, “DNA Structure Modulates the Oligomerization Properties of the AAV Initiator Protein Rep68” (PLoS Pathogens, 2009).
Results are given in words; binding and its absence hold for the method and conditions named. Some binding calls cover weakened binding; strength is not graded here.

Chains of the proteins cited; added tags and fusions are not shown.
UniProt P03132: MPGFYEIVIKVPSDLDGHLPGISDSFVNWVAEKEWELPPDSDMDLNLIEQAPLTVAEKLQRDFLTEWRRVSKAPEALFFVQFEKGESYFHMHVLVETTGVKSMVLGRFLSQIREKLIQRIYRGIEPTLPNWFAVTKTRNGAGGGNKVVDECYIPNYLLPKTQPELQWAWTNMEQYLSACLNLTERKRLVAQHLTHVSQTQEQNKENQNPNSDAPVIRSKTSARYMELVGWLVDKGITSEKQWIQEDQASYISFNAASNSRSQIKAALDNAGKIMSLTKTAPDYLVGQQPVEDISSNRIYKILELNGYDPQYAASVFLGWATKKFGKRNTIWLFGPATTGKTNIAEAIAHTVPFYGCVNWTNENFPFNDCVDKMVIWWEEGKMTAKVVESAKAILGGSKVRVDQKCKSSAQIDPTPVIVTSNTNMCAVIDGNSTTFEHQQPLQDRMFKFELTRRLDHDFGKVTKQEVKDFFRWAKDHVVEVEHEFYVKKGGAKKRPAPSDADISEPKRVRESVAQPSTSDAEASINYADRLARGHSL

Key:
[1] = molecular target: Rep68 (adeno-associated virus 2), non-tagged (adeno-associated virus 2 (AAV2)) (UniProt P03132); test: SAXS; purified Rep68-RBS dsDNA complex; radius of gyration; both purified
[2] = molecular target: Rep68 (adeno-associated virus 2), non-tagged (adeno-associated virus 2 (AAV2)) (UniProt P03132); test: SEC; Superose 6, buffer A; Rep68 16.6 µM incubated with 2.8 µM ssDNA-dsDNA heteroduplex (25-nt 3' poly-dT tail), unlabelled or Cy5-labelled (2.8 or 2.1 µM); both purified
[3] = molecular target: Rep68 (adeno-associated virus 2), non-tagged (adeno-associated virus 2 (AAV2)) (UniProt P03132); test: SEC; Superose 6 10/300 GL, buffer A; Rep68 16.6 µM incubated with 2.8 µM RBS dsDNA 30 min on ice; both purified
[4] = molecular target: Rep68 (adeno-associated virus 2), non-tagged (adeno-associated virus 2 (AAV2)) (UniProt P03132); test: SEC; Superose 6 10/300 GL, buffer A (25 mM Tris-HCl pH 8.0, 200 mM NaCl, 5% glycerol, 1 mM TCEP); Rep protein 16.6 µM incubated with 2.8 µM ssDNA (polydT25) 30 min on ice; also with 1 mM ATP, ATP/CaCl2 or ATP/MgCl2 added (same complex); both purified
[5] = molecular target: Rep68 (adeno-associated virus 2), non-tagged (adeno-associated virus 2 (AAV2)) (UniProt P03132); test: SAXS; purified Rep68-ssDNA complex; radius of gyration; both purified
[6] = molecular target: Rep68 (adeno-associated virus 2), non-tagged (adeno-associated virus 2 (AAV2)) (UniProt P03132); test: AUC; sedimentation velocity; Rep68 1 mg/ml with 2.8 µM ssDNA (polydT25), buffer A, 45,000 rpm, 20°C; both purified
[7] = molecular target: Rep68 (adeno-associated virus 2), non-tagged (adeno-associated virus 2 (AAV2)) (UniProt P03132); test: SEC; preliminary gel filtration of the Rep68-ATP complex, no DNA; data not shown; both purified

Measured: binding

Rep68 (adeno-associated virus 2), non-tagged (from UniProt P03132 1-536)
binds: all assays above
